These are yes or no findings as the source states them, for the method shown. Binding seen in cells or lysates may run through a third protein. Some results given as binding are weak or reduced against the parent protein; the word gives no strength. For some of these results: Where a sequence is shown, tags or fusion partners need not be part of it.
Key:
[1] = molecular target: β-catenin (UniProt P35222); experiment: endogenous coimmunoprecipitation in HEK293 cells
[2] = molecular target: PKCα (UniProt P17252); experiment: in vivo coimmunoprecipitation with various PKC isoforms
[3] = molecular target: glucocorticoid receptor-interacting protein 1 (GRIP1) (UniProt Q15596); experiment: anti-Flag purification from HEK293 cells, LC-MS/MS; detected in the eluates by immunoblot
[4] = molecular target: glucocorticoid receptor-interacting protein 1 (GRIP1) (UniProt Q15596); experiment: anti-Flag M2 affinity purification from HEK293 extracts, LC-MS/MS and immunoblot of eluates

Protein sequences, listed by entry. Tags and fused reporters are not part of them. Residues count along the entry.
UniProt P35222: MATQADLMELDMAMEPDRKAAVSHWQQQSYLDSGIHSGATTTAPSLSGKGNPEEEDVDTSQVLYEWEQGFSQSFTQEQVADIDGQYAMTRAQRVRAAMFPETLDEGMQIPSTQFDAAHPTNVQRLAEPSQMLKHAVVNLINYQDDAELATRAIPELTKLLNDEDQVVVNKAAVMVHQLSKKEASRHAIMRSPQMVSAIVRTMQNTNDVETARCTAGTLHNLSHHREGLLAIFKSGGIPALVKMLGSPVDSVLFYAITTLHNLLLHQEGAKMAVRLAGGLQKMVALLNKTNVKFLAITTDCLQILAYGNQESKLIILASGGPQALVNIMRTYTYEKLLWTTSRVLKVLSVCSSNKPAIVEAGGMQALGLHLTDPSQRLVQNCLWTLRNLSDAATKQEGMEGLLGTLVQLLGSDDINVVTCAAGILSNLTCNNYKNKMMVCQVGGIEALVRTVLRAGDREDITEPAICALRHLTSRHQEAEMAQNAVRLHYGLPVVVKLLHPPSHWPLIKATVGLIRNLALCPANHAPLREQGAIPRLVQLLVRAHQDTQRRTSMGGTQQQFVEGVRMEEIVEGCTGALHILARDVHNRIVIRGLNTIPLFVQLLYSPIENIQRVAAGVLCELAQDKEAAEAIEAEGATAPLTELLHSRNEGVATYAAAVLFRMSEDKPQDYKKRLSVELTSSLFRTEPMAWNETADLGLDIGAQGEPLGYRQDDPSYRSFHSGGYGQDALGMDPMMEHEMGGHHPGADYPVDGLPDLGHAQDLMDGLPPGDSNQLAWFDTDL
UniProt Q15596, residues 2-1464: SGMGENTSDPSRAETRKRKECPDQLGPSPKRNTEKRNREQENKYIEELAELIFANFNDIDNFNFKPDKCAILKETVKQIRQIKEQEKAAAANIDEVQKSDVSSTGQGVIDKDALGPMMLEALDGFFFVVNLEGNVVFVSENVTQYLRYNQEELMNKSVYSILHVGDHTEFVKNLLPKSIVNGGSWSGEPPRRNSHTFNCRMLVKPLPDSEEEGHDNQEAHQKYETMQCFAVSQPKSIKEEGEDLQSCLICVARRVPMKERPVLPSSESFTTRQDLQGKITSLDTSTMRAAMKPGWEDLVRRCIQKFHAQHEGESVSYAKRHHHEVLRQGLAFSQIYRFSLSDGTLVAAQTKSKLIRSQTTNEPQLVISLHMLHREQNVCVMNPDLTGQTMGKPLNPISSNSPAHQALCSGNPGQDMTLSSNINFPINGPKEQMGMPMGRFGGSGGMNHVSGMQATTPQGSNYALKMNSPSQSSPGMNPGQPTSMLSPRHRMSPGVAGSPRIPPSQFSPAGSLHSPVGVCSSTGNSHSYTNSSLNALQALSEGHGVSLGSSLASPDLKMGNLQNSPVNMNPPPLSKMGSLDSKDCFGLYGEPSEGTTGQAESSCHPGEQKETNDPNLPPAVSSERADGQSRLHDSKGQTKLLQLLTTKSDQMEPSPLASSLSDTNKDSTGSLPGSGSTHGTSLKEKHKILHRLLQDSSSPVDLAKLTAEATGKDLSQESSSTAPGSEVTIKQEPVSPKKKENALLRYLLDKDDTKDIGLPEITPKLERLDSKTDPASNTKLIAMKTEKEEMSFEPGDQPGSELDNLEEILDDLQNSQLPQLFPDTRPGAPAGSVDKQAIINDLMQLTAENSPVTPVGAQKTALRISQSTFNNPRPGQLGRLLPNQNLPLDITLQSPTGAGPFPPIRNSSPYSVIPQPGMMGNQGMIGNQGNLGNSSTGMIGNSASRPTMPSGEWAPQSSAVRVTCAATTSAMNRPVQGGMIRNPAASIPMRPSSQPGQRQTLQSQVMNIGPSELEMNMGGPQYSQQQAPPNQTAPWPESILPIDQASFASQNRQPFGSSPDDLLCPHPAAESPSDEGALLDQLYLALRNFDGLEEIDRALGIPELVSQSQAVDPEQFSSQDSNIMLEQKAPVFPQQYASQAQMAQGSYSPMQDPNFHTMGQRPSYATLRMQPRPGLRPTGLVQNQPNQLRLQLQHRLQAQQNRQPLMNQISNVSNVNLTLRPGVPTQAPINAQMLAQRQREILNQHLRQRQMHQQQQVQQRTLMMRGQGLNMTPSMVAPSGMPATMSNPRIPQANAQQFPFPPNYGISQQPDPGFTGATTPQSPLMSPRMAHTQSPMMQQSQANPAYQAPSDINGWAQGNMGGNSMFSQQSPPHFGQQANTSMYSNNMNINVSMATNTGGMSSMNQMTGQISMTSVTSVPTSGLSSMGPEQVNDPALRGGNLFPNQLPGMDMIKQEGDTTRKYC

binding [1]	binding [2]	binding [3]	binding [4]	Binder
binds	binds			RORα (receptor, UniProt P35398 1-523, looked up) MESAPAAPDPAASEPGSSGADAAAGSRETPLNQESARKSEPPAPVRRQSYSSTSRGISVTKKTHTSQIEIIPCKICGDKSSGIHYGVITCEGCKGFFRRSQQSNATYSCPRQKNCLIDRTSRNRCQHCRLQKCLAVGMSRDAVKFGRMSKKQRDSLYAEVQKHRMQQQQRDHQQQPGEAEPLTPTYNISANGLTELHDDLSNYIDGHTPEGSKADSAVSSFYLDIQPSPDQSGLDINGIKPEPICDYTPASGFFPYCSFTNGETSPTVSMAELEHLAQNISKSHLETCQYLREELQQITWQTFLQEEIENYQNKQREVMWQLCAIKITEAIQYVVEFAKRIDGFMELCQNDQIVLLKAGSLEVVFIRMCRAFDSQNNTVYFDGKYASPDVFKSLGCEDFISFVFEFGKSLCSMHLTEDEIALFSAFVLMSADRSWLQEKVKIEKLQQKIQLALQHVLQKNHREDGILTKLICKVSTLRALCGRHTEKLMAFKAIYPDIVRLHFPPLYKELFTSEFEPAMQIDG
		binds	binds	Flag-tagged RORα (receptor, UniProt P35398 1-523, looked up, not shown: small tags and cut ends) MESAPAAPDPAASEPGSSGADAAAGSRETPLNQESARKSEPPAPVRRQSYSSTSRGISVTKKTHTSQIEIIPCKICGDKSSGIHYGVITCEGCKGFFRRSQQSNATYSCPRQKNCLIDRTSRNRCQHCRLQKCLAVGMSRDAVKFGRMSKKQRDSLYAEVQKHRMQQQQRDHQQQPGEAEPLTPTYNISANGLTELHDDLSNYIDGHTPEGSKADSAVSSFYLDIQPSPDQSGLDINGIKPEPICDYTPASGFFPYCSFTNGETSPTVSMAELEHLAQNISKSHLETCQYLREELQQITWQTFLQEEIENYQNKQREVMWQLCAIKITEAIQYVVEFAKRIDGFMELCQNDQIVLLKAGSLEVVFIRMCRAFDSQNNTVYFDGKYASPDVFKSLGCEDFISFVFEFGKSLCSMHLTEDEIALFSAFVLMSADRSWLQEKVKIEKLQQKIQLALQHVLQKNHREDGILTKLICKVSTLRALCGRHTEKLMAFKAIYPDIVRLHFPPLYKELFTSEFEPAMQIDG
